The exact form of at least one protein or probe is not confirmed. Where a protein sequence is shown, tags need not be part of it.
Assays:
Assay in all cases: activity assay
MG165-5 = system: T1, MG165-5; conditions: primer extension gel; protein translated in vitro; protein details: N-terminal Strep; label: 5'-FAM primer; DNA:RNA hybrid
T1 sequence (limits assumed): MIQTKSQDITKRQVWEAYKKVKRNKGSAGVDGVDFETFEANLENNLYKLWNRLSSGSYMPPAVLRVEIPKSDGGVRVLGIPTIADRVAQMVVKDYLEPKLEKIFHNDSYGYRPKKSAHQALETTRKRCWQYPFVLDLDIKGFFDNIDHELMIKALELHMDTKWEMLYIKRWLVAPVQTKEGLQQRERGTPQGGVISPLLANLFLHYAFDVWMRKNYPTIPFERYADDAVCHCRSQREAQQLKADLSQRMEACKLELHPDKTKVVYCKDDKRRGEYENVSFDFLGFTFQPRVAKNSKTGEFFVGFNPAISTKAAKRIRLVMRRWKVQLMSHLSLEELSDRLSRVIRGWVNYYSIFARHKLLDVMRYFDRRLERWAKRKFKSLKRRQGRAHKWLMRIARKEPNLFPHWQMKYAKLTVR

MG153-12 = system: T2, MG153-12; conditions: primer extension gel; higher error rate than MMLV; protein translated in vitro; protein details: N-terminal Strep; label: 5'-FAM primer; DNA:RNA hybrid
T2 sequence (limits assumed): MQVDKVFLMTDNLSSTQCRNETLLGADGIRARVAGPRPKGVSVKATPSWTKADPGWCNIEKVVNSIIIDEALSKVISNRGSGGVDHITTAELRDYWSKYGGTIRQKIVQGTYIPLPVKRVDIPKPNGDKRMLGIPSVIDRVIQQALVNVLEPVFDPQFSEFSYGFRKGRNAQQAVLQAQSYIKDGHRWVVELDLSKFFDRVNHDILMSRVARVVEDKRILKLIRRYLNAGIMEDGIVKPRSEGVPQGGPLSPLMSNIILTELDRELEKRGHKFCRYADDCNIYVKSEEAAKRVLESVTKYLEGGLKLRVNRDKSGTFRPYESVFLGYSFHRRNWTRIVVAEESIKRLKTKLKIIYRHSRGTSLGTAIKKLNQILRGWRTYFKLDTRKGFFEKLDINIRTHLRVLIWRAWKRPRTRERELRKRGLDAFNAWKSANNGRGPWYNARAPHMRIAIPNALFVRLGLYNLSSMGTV

MG153-37 = system: T3, MG153-37; conditions: primer extension gel; 3 mM MgCl2, 37 C; protein translated in vitro; protein details: N-terminal Strep; label: 5'-FAM primer; DNA:RNA hybrid
T3 sequence (limits assumed): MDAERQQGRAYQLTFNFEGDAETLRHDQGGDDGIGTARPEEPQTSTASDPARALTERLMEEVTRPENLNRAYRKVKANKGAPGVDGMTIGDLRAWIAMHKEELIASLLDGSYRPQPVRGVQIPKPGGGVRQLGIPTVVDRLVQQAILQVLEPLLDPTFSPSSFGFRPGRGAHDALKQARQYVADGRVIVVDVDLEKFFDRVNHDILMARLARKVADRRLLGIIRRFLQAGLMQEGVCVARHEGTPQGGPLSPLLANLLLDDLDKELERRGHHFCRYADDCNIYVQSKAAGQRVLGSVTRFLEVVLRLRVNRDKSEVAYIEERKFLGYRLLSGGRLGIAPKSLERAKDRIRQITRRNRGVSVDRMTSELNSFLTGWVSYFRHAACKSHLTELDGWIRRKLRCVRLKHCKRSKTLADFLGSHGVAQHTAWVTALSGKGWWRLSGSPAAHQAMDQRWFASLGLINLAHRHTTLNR

MG155-2 = system: T4, MG155-2; conditions: primer extension on general RNA; protein translated in vitro; protein details: N-terminal Strep; label: 5'-FAM primer; DNA:RNA hybrid
T4 sequence: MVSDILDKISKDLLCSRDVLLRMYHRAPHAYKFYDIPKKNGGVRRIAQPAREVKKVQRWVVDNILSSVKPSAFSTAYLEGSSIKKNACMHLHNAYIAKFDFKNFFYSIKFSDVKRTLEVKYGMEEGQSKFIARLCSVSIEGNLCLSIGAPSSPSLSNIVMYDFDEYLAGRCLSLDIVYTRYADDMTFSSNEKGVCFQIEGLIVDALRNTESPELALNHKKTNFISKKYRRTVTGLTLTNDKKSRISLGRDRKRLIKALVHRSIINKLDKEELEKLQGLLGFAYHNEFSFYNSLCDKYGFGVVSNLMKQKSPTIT

MG173-10 = system: T5, MG173-10; conditions: primer extension on general RNA; protein translated in vitro; protein details: N-terminal Strep; label: 5'-FAM primer; DNA:RNA hybrid
T5 sequence (limits assumed): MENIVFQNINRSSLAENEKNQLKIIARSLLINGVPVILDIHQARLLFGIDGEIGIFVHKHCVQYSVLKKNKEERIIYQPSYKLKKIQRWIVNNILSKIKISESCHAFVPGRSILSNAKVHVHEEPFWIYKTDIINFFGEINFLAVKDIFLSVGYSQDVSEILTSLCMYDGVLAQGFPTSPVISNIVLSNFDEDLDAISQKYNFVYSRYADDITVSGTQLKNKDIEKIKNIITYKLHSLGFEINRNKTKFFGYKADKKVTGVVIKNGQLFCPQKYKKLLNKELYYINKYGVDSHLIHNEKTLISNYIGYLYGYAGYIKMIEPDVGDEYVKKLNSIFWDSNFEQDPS

MG153-4 = system: T6, MG153-4; conditions: primer extension gel; 3 mM MgCl2, 37 C; protein translated in vitro; protein details: N-terminal Strep; label: 5'-FAM primer; DNA:RNA hybrid
T6 sequence (limits assumed): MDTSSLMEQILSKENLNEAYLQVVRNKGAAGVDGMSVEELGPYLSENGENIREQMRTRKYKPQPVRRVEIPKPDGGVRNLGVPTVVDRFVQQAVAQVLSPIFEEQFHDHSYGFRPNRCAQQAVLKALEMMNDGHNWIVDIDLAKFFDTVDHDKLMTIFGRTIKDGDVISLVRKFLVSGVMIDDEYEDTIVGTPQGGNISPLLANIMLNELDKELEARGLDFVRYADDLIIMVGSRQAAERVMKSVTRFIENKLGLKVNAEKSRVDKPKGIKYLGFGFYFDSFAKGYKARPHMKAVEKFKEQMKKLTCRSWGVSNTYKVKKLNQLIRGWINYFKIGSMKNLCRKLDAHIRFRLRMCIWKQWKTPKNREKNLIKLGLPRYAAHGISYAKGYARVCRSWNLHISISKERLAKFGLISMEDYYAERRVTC

MG153-53 = system: T7, MG153-53; conditions: primer extension gel; 3 mM MgCl2, 37 C; protein translated in vitro; protein details: N-terminal Strep; label: 5'-FAM primer; DNA:RNA hybrid
T7 sequence (limits assumed): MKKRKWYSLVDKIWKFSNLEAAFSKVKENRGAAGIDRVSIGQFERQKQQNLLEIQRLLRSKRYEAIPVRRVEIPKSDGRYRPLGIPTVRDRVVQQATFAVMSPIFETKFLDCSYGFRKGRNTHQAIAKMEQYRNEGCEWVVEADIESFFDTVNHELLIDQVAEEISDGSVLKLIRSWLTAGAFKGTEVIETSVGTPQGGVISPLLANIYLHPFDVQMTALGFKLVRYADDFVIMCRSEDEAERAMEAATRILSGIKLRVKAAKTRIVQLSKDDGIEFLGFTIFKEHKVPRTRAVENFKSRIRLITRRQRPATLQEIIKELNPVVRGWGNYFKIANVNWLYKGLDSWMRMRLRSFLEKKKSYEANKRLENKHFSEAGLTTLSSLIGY

Measured: activity on this sequence

GGCAAACCGCCTCTCCCCGCGCGTTGGCCGATTCATTAATGCAGCTGGCACGACAGGTTTCCCGACTGGAAAGGAGACCCGGGCAGTGAGCGCAACGGGTCTCCAATTTAAGCCAGCCCCGACACCCGCCAACACCCGCTGACGCGCCCTGACGGGCTTGTCTGCTCCCGGCATCCGCTTACAGACAAGCTGTGACCGTCTC / GAGACGGTCACAGCTTGTCTG [202-nt RNA template annealed to DNA primer]
active: MG165-5 | MG153-12 | MG153-37 | MG155-2 | MG173-10 | MG153-4 | MG153-53

Reference: patent US20260193623
